# Counter-ions that a name gives are not always drawn.
# System: Schmidtea mediterranea
# Method: Asexual strains of the freshwater planarian Schmidtea mediterranea (38, 45) were maintained in culture medium, consisting of water, that was first deionized and then distilled, and to which the following nutrients were added: 1.6 mM NaCl, 1.0 mM CaCl2, 1.0 mM MgSO4, 0.1 mM MgCl2, 0.1 mM KCl and 1.2 mM NaHCO3. The animals were continuously kept in the dark at a room temperature of 20° C. and were fed once a week with veal liver. […]
# In each experimental condition, animals were cut transversally immediately before exposure to a genotoxic, non-genotoxic or non-carcinogen concentration, medium (control) or medium with DMSO (vehicle control). […] Stem cell proliferation was measured after one day of regeneration (the mitotic minimum of regeneration), after three days (the mitotic maximum of regeneration), after one week (the end stage of regeneration) after two and six weeks (during homeostasis), as well as at the appearance of organismal phenotypes (15, 46, 47). Phenotypic effects were monitored daily with a stereo microscope.
# An in vivo study allows the investigation of the entire organism's response to carcinogenic compounds and, as such, makes it possible to link carcinogen-induced stem cell proliferation with the organism's phenotype. […] Stem cell proliferation was quantified at the appearance of systemic effects (category 2 concentrations).
structure (smiles),measurement,setting,value
"CN(C)CCN(Cc1cccs1)c1ccccn1 [MPH, methapyrilene hydrochloride]",Cat. 3 concentrations: Mortality,"MPH, exposure two weeks",500 µM
same,Cat. 1 concentrations: No effects on phenotype,"asexual strain, Schmidtea mediterranea, in vivo, 2 weeks",10 µM
